Measured values: paper PMC10629583, “Specific inhibition of an anticancer target, polo-like kinase 1, by allosterically dismantling its mechanism of substrate recognition” (Proceedings of the National Academy of Sciences of the …, 2023)
These are yes or no findings as the source states them, for the method shown. Binding seen in cells or lysates may run through a third protein. Some entries that bind do so weakly or less than the wild type.

Amino acid sequences for entries named in this document (tags omitted). A change or cut given only in a name is not applied to a line headed by its entry.
UniProt P53350: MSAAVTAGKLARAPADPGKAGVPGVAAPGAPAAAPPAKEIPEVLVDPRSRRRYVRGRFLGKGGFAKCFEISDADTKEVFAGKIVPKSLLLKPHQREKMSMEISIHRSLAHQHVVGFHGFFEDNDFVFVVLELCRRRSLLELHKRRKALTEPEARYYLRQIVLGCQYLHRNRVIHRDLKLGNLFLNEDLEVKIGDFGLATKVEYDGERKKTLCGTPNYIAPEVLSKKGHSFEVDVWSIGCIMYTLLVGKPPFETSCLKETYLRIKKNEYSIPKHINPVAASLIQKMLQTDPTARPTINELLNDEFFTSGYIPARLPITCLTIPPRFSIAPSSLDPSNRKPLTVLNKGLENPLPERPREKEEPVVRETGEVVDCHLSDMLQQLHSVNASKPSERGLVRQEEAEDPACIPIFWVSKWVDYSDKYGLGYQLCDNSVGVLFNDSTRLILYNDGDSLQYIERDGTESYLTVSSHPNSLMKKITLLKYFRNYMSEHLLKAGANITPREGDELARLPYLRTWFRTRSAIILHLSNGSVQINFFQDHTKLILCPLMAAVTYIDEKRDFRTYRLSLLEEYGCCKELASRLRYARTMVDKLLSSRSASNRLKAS
UniProt P35222: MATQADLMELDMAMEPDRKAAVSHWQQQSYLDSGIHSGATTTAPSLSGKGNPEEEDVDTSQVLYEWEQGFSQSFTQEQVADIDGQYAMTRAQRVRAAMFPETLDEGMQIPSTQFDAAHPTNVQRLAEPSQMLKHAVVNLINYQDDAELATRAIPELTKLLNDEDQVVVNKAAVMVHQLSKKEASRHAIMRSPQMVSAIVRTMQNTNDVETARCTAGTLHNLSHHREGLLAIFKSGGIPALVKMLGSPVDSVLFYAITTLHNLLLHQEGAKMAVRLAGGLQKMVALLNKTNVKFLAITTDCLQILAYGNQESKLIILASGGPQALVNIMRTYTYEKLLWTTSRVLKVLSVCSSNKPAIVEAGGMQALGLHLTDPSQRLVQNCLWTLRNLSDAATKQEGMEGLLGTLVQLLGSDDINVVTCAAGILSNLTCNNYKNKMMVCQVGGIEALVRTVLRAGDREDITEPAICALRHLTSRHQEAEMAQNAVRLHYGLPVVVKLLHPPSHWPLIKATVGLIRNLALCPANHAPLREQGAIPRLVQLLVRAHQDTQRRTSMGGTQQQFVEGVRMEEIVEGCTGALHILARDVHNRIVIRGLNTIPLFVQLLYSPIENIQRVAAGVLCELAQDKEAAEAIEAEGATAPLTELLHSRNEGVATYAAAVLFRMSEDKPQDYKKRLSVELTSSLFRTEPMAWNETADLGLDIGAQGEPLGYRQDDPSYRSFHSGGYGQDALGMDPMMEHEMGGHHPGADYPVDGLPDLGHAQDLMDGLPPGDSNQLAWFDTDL
UniProt O60566: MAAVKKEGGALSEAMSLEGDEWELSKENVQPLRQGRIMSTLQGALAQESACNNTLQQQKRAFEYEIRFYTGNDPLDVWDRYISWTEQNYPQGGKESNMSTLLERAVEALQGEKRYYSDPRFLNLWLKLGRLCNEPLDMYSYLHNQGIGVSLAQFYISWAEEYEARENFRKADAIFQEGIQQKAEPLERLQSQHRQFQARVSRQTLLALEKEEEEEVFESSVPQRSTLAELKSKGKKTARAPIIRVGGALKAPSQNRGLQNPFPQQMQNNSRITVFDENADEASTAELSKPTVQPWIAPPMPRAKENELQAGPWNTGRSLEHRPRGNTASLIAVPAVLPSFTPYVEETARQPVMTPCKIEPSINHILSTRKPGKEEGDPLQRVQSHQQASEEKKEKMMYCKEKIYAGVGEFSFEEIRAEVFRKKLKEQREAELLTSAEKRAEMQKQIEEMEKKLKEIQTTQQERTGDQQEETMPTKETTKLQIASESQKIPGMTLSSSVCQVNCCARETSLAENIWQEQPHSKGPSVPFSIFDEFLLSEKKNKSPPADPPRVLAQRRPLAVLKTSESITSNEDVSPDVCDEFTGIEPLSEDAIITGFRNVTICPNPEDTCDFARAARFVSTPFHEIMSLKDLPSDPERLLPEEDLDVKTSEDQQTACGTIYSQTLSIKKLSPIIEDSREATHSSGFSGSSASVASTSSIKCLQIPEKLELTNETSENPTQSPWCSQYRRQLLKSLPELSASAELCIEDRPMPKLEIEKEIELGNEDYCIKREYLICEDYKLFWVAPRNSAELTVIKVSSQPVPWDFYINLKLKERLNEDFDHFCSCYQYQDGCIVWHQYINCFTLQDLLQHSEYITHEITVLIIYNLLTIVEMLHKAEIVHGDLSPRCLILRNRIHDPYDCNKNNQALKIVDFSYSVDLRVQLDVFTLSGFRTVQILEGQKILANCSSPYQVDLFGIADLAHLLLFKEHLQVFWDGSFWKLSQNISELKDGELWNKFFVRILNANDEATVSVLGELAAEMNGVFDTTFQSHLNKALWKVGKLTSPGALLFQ

Assays:
[1] = target: Flag-Plk1 (polo-like kinase 1), wild type (human) (UniProt P53350); experiment: co-IP; anti-Flag immunoprecipitation from HeLa cells stably expressing Flag-Plk1 WT or F559D, TBSN buffer (20 mM Tris-Cl pH 8.0, 150 mM NaCl, 0.5% NP-40); cells treated with 600 nM nocodazole 16 h and 300 nM okadaic acid 1.5 h, and with DMSO or 20 μM Allopole for 2 h; immunoblot
[2] = target: Flag-Plk1 F559D mutant (human) (UniProt P53350); experiment: as above

| binding [1] | binding [2] | Substance |
| --- | --- | --- |
| binds | – | β-catenin (from UniProt P35222 1-781) |
| – | binds | phosphorylated BubR1 (from UniProt O60566 1-1050) |
